Measurements taken from paper PMC12085017.
Results are given in words; binding and its absence hold for the method and conditions named. In cells and extracts the contact can be indirect. Some binding calls cover weakened binding; strength is not graded here.

Biological target: voltage-dependent anion channel 1 (human (endogenous in PANC-1)), P21796
Test: co-IP; protein extracts from PANC-1 cells; Pierce crosslinking magnetic IP/Co-IP kit; cells treated with or without Pt@PCN-Cu
Conditions: remark: other sources report otherwise

B1: hexokinase 2, P52789 1-917 (protein)
chain: MIASHLLAYFFTELNHDQVQKVDQYLYHMRLSDETLLEISKRFRKEMEKGLGATTHPTAAVKMLPTFVRSTPDGTEHGEFLALDLGGTNFRVLWVKVTDNGLQKVEMENQIYAIPEDIMRGSGTQLFDHIAECLANFMDKLQIKDKKLPLGFTFSFPCHQTKLDESFLVSWTKGFKSSGVEGRDVVALIRKAIQRRGDFDIDIVAVVNDTVGTMMTCGYDDHNCEIGLIVGTGSNACYMEEMRHIDMVEGDEGRMCINMEWGAFGDDGSLNDIRTEFDQEIDMGSLNPGKQLFEKMISGMYMGELVRLILVKMAKEELLFGGKLSPELLNTGRFETKDISDIEGEKDGIRKAREVLMRLGLDPTQEDCVATHRICQIVSTRSASLCAATLAAVLQRIKENKGEERLRSTIGVDGSVYKKHPHFAKRLHKTVRRLVPGCDVRFLRSEDGSGKGAAMVTAVAYRLADQHRARQKTLEHLQLSHDQLLEVKRRMKVEMERGLSKETHASAPVKMLPTYVCATPDGTEKGDFLALDLGGTNFRVLLVRVRNGKWGGVEMHNKIYAIPQEVMHGTGDELFDHIVQCIADFLEYMGMKGVSLPLGFTFSFPCQQNSLDESILLKWTKGFKASGCEGEDVVTLLKEAIHRREEFDLDVVAVVNDTVGTMMTCGFEDPHCEVGLIVGTGSNACYMEEMRNVELVEGEEGRMCVNMEWGAFGDNGCLDDFRTEFDVAVDELSLNPGKQRFEKMISGMYLGEIVRNILIDFTKRGLLFRGRISERLKTRGIFETKFLSQIESDCLALLQVRAILQHLGLESTCDDSIIVKEVCTVVARRAAQLCGAGMAAVVDRIRENRGLDALKVTVGVDGTLYKLHPHFAKVMHETVKDLAPKCDVSFLQSEDGSGKGAALITAVACRIREAGQR
binding: binds
